Reference: article PMC4323219
No constants are given. Whether binding was seen depends on the method and setting. In cells and extracts the contact can be indirect. Binding calls can cover weak binding; strength is not graded here.

The chains behind the UniProt entries cited, without tags or fusion partners. Where a name states a change or a piece, a line headed by the entry shows the natural chain unless it says otherwise. Residues count along the entry.
UniProt P15692: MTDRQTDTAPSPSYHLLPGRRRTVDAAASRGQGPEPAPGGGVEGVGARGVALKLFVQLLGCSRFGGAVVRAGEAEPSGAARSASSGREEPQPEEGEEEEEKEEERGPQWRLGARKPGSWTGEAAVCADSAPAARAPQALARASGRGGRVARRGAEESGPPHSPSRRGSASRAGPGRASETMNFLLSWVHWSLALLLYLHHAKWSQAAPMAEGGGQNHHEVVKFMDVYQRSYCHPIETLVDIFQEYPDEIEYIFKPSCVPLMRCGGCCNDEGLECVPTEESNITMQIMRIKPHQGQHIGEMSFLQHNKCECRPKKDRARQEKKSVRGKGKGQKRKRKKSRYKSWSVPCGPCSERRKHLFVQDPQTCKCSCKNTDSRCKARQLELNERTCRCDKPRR
UniProt P23471, residues 25-2315: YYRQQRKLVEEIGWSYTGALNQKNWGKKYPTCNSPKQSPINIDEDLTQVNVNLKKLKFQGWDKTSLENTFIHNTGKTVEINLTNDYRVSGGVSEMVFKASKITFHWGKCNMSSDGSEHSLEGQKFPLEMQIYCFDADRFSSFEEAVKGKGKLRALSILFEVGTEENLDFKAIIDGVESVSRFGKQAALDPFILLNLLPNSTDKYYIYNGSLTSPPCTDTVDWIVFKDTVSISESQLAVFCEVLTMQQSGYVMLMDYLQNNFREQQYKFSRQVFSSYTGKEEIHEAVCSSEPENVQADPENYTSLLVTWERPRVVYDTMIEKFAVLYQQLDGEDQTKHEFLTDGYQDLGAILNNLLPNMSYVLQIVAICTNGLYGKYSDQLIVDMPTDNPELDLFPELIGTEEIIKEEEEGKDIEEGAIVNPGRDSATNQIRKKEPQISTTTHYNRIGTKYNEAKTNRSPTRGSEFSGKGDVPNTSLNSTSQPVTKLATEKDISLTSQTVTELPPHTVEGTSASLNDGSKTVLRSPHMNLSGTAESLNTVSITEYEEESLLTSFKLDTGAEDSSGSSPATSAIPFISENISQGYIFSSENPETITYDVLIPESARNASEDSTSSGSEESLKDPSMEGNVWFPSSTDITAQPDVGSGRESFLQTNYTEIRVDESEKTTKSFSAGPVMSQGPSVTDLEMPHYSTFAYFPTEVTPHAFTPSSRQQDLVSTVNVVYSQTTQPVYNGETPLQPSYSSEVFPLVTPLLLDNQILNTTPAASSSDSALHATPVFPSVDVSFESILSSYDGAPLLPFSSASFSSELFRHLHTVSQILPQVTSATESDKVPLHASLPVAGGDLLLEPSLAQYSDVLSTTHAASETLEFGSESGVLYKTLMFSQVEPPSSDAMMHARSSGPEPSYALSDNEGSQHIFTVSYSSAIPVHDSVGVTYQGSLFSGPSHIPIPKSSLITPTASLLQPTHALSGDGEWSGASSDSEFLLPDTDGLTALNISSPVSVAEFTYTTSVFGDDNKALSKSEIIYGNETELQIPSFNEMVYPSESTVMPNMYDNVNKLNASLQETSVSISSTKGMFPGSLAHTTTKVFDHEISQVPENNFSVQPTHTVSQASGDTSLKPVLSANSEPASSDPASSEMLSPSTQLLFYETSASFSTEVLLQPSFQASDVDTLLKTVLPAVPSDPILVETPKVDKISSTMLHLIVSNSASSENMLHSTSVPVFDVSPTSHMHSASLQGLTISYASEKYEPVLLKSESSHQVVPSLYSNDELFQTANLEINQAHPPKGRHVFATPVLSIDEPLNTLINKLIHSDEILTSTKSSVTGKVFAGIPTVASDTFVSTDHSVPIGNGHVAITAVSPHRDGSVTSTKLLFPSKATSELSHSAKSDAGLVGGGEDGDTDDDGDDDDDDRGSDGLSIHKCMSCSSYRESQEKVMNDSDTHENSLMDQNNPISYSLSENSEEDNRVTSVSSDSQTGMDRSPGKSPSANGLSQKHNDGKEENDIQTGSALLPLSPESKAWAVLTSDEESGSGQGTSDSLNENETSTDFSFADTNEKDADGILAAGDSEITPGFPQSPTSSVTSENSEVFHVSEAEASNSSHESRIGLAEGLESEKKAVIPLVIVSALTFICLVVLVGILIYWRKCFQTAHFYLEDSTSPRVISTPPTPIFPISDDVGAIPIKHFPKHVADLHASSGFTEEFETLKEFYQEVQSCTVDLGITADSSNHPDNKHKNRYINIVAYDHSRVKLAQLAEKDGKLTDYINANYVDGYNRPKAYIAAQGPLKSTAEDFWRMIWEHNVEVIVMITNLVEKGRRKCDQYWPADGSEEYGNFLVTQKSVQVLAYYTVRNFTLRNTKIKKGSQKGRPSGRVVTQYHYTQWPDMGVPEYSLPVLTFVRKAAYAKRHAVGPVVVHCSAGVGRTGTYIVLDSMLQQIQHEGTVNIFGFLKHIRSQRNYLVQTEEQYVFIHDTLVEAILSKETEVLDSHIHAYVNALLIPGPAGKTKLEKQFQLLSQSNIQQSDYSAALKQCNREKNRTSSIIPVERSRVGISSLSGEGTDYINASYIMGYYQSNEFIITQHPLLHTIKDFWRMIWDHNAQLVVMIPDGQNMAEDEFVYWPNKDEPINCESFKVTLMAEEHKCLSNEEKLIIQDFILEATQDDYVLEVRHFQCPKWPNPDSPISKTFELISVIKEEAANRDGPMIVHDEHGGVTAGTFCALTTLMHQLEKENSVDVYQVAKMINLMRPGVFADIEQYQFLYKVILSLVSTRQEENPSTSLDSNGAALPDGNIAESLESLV

Experiments:
[1] = target: Vascular endothelial growth factor A (endogenous) (human (endogenous in HUVEC and U87MG)) (UniProt P15692); assay: co-IP; U87MG cells lysed with RIPA buffer; immunoprecipitated for RPTPβ/ζ, VEGF or PTN, Western blot for VEGF or RPTPβ/ζ; IgG as negative control; with or without CS-E or PTN in some panels
[2] = target: Receptor protein tyrosine phosphatase beta/zeta (human (endogenous in HUVEC and U87MG)) (UniProt P23471); assay: proximity ligation; in situ PLA on fixed U87MG cells, endogenous proteins; treatments in some panels: CS-E II 100 ng/ml, exogenous PTN 100 ng/ml
[3] = target: Receptor protein tyrosine phosphatase beta/zeta (human (endogenous in HUVEC and U87MG)) (UniProt P23471); assay: proximity ligation; in situ PLA on fixed HUVEC, endogenous proteins; treatments in some panels: VEGF165 10 ng/ml, siRNA against RPTPβ/ζ, bevacizumab 250 μg/ml, CS-E II 100 ng/ml, exogenous PTN 100 ng/ml
[4] = target: Receptor protein tyrosine phosphatase beta/zeta (human (endogenous in HUVEC and U87MG)) (UniProt P23471); assay: co-IP; U87MG cells lysed with RIPA buffer; immunoprecipitated for RPTPβ/ζ, VEGF or PTN, Western blot for VEGF or RPTPβ/ζ; IgG as negative control; with or without CS-E or PTN in some panels

Substance	binding [1]	binding [2]	binding [3]	binding [4]
Receptor protein tyrosine phosphatase beta/zeta, short transmembrane isoform (from UniProt P23471-3)	binds	–	–	–
Vascular endothelial growth factor A (endogenous) (from UniProt P15692-4) (ligand)	–	binds	binds	binds
Receptor protein tyrosine phosphatase beta/zeta, long transmembrane isoform (from UniProt P23471-1 25-2315)	binds	–	–	–
